Source: PubChem BioAssay AID1347423 (Functional Genomics Laboratory (NCATS/FGL), 2020)
The campaign covered roughly 52,000 sequences. About 210 (0.4%) were called active.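 The calls were made as follows: active = gene whose silencing raises cell survival under the drug, median off-target-corrected z-score across its silencing RNAs 2 or more; inactive = the rest.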 The list shows a part of the results.

experiment: Resistance to Poly (ADP-Ribose) Polymerase inhibitor: Gene Identification via Genome-wide siRNA Screen; details: mouse BRCA2 R2336H ES cells, olaparib, CellTiter-Glo viability; active compounds read high
Procedure, shortened: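 Mouse BRCA2 R2336H ES cells were reverse-transfected with siRNA (20 nM final), treated at 48 h with 500 nM olaparib, and read by CellTiter-Glo after 72 h. Scores: MAD-based z per siRNA, median per gene, seed off-target correction.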

Row | Sequence | z-score
1 | GGACACAAGGUCGCCAUCUTT against Tcf3 | inactive: 0.766
2 | GGCUCACAGGACCUAUUUCTT against E330026B02Rik | inactive: -1.52
3 | GGAGCUCUCAUCCUACUAUTT against Eif4ebp3 | inactive: -0.0385
4 | CCUGGAUAGUCGAUCCACUTT against Mesp1 | inactive: 0.584
5 | CCUAUGAGGAUAUGUGGAUTT against Adm2 | inactive: -0.641
6 | GGUGAUAGUCCACGAGGUUTT against Mbc2 | inactive: -1.31
7 | GGUUUUCCGAGGUUUCAAGTT against Azgp1 | inactive: 1.28
8 | GGGAGAAGGUGGAAAUACUTT against Hdgfrp3 | inactive: -1.78
9 | GGAUUUUCUUGACAAGCCATT against Rnf146 | inactive: 0.82
10 | GGAAAAAAUUAAAGAGCACTT against Gcl | inactive: 0.609
11 | GCAACGUGGUCAUCAAUCUTT against Ndufa9 | inactive: 2.26
12 | GGAAAUCAGAGAGAGGUAUTT against D330024H06Rik | inactive: -0.275
13 | GCAUUGUCCGAGGUUUAUUTT against 1300010A20Rik | inactive: 1.33
14 | GCUGUAUGCCUGUUUAGUGTT against E130201N16Rik | inactive: 0.603
15 | GGCUUCCUGAUUCAAGAUGTT against Gzmd | inactive: 0.093
16 | GCAGCAUACAUAAUGUAACTT against C030048B08Rik | inactive: -0.142
17 | CCACUACUCGCCUUGGAAUTT against Slc25a11 | inactive: -0.963
18 | CGGUAACUUUGUCGUUUAGTT against 4930544G11Rik | inactive: 0.528
19 | GGGUGGUUGGAAAUGAUACTT against Kdr | inactive: -0.805
20 | GGUGACUUCAUUUAGUUUGTT against Zfp352 | inactive: -0.00648
21 | CCGAGUUUGUGUCACCACUTT against Krtcap2 | inactive: -0.616
22 | GGGCUGUGAGCUCUGUUCATT against Rspondin | inactive: -1.34
23 | UCAGAAUUCGAAAACUGGATT against Olfr1297 | inactive: 0.13
24 | GGAUAAUGGGAUGAGUCCUTT against Kcnq1 | inactive: 0.317
25 | GGCCCAGAAAUGAUAUGGATT against Etd | inactive: 1.65
26 | GCCAGAAUCUGUUGUGAACTT against Gfpt1 | inactive: 2.1
27 | GGAGAAACGAAACAAGAGUTT against Fkbp11 | inactive: 2.35
28 | GGUCUUUACAGUCCUCUACTT against Olfr71 | inactive: 1.17
29 | GGUCUUUGUAUUUGAUGUUTT against Ctbs | inactive: -0.513

Some of the entries so far, comma-delimited:
Row,Sequence,z-score
8,GGGAGAAGGUGGAAAUACUTT against Hdgfrp3,inactive: -1.78
9,GGAUUUUCUUGACAAGCCATT against Rnf146,inactive: 0.82
